Some results were stated once for a whole list of compounds, not compound by compound.
What follows are molecules tested against T1, V600E full-length B-Raf (Homo sapiens, UniProt P15056, V600E) (assay: B-Raf IC50 Assay Protocol (incorporation of radio labeled phosphate from [γ-33P]ATP into FSBA-modified wild-type MEK)). Conditions: 20 nM V600E full-length B-Raf, 1 μM FSBA-MEK, 4 μM ATP, 60-minute incubation at 22° C.
T1 construct: 1 μM FSBA-MEK and 20 nM V600E full-length B-Raf; made in house; host or cells: Sf9 insect cells (baculovirus)
Format: biochemical

Protein sequences, listed by entry. Tags and fused reporters are not part of them.
UniProt P15056, whole entry V600E: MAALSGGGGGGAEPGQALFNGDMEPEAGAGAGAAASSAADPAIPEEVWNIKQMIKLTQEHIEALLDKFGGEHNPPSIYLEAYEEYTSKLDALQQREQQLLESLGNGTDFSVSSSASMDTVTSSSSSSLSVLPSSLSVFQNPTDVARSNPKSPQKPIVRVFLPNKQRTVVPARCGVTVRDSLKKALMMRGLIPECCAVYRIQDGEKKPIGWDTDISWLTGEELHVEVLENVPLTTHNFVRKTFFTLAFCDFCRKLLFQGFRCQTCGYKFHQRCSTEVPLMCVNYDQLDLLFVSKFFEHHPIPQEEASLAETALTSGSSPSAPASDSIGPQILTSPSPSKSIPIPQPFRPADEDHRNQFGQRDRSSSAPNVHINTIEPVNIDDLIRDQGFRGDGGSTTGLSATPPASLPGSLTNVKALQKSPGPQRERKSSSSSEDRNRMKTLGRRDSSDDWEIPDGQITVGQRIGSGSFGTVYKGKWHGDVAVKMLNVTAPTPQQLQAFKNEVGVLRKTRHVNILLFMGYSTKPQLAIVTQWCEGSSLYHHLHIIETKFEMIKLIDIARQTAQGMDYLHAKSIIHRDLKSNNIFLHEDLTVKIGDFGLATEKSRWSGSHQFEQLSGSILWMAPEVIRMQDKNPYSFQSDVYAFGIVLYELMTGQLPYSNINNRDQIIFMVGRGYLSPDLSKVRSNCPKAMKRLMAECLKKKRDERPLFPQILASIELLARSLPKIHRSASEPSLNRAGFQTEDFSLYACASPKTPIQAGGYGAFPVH

IC50, < 1000 nM:
CCCS(=O)(=O)Nc1ccc(F)c(C(=O)Nc2cnc3[nH]c(C(C)C)nc3c2)c1F [Example 31]
CCCS(=O)(=O)Nc1ccc(F)c(C(=O)Nc2cnc3[nH]c(-c4ccc(Cl)cc4)nc3c2)c1F [Example 10, N-(2-(4-chlorophenyl)-3H-imidazo[4,5-b]pyridin-6-yl)-2,6-difluoro-3-(propylsulfonamido)benzamide]
CCCS(=O)(=O)Nc1ccc(F)c(C(=O)Nc2cnc3[nH]c(-c4ccc(C)c(C(F)(F)F)c4)nc3c2)c1F [Example 19, 2,6-difluoro-N-(2-(4-methyl-3-(trifluoromethyl)phenyl)-3H-imidazo[4,5-b]pyridin-6-yl)-3-(propylsulfonamido)benzamide]
CCCS(=O)(=O)Nc1ccc(F)c(C(=O)Nc2cnc3[nH]c(-c4ccc(Br)cc4)nc3c2)c1F [Example 15, N-(2-(4-bromophenyl)-3H-imidazo[4,5-b]pyridin-6-yl)-2,6-difluoro-3-(propylsulfonamido)benzamide]
CCCS(=O)(=O)Nc1ccc(F)c(C(=O)Nc2cnc3[nH]c(C4CCC4)nc3c2)c1F [Example 34, N-(2-cyclobutyl-3H-imidazo[4,5-b]pyridin-6-yl)-2,6-difluoro-3-(propylsulfonamido)benzamide]
CCCS(=O)(=O)Nc1ccc(F)c(C(=O)Nc2cnc3[nH]c(Cc4ccc(OC)cc4)nc3c2)c1F [Example 28, 2,6-difluoro-N-(2-(4-methoxybenzyl)-3H-imidazo[4,5-b]pyridin-6-yl)-3-(propylsulfonamido)benzamide]
CCCS(=O)(=O)Nc1ccc(F)c(C(=O)Nc2cnc3[nH]c(-c4ccc(N(C)C)nc4)nc3c2)c1F [Example 40, N-(2-(6-(dimethylamino)pyridin-3-yl)-3H-imidazo[4,5-b]pyridin-6-yl)-2,6-difluoro-3-(propylsulfonamido) benzamide]
CCCS(=O)(=O)Nc1ccc(F)c(C(=O)Nc2cnc3[nH]c(C4CCCNC4)nc3c2)c1F (centres unmarked) [Example 9, 2,6-difluoro-N-(2-(piperidin-3-yl)-3H-imidazo[4,5-b]pyridin-6-yl)-3-(propylsulfonamido)benzamide]
CCCS(=O)(=O)Nc1ccc(F)c(C(=O)Nc2cnc3[nH]c(-c4ccc(OC(F)(F)F)cc4)nc3c2)c1F [Example 17, 2,6-difluoro-3-(propylsulfonamido)-N-(2-(4-(trifluoromethoxy)phenyl)-3H-imidazo[4,5-b]pyridin-6-yl)benzamide]
CCCS(=O)(=O)Nc1ccc(F)c(C(=O)Nc2cnc3[nH]c(-c4cccc(Br)c4)nc3c2)c1F [Example 22, N-(2-(3-bromophenyl)-3H-imidazo[4,5-b]pyridin-6-yl)-2,6-difluoro-3-(propylsulfonamido)benzamide]
CCCS(=O)(=O)Nc1ccc(F)c(C(=O)Nc2cnc3[nH]c(-c4cccc(F)c4)nc3c2)c1F [Example 41, 2,6-difluoro-N-(2-(3-fluorophenyl)-3H-imidazo[4,5-b]pyridin-6-yl)-3-(propylsulfonamido) benzamide]
CCCS(=O)(=O)Nc1ccc(F)c(C(=O)Nc2cnc3[nH]c(-c4cccc(OC)c4)nc3c2)c1F [Example 42, 2,6-difluoro-N-(2-(3-methoxyphenyl)-3H-imidazo[4,5-b]pyridin-6-yl)-3-(propylsulfonamido) benzamide]
CCCS(=O)(=O)Nc1ccc(F)c(C(=O)Nc2cnc3[nH]c(-c4ccc(C)cc4)nc3c2)c1F [Example 14, 2,6-difluoro-3-(propylsulfonamido)-N-(2-p-tolyl-3H-imidazo[4,5-b]pyridin-6-yl)benzamide]
CCCS(=O)(=O)Nc1ccc(F)c(C(=O)Nc2cnc3[nH]c(Cc4ccc(Br)cc4)nc3c2)c1F [Example 29, N-(2-(4-bromobenzyl)-3H-imidazo[4,5-b]pyridin-6-yl)-2,6-difluoro-3-(propylsulfonamido)benzamide]
CCCS(=O)(=O)Nc1ccc(F)c(C(=O)Nc2cnc3[nH]c(-c4ccc(N(C)C)cc4)nc3c2)c1F [Example 3, N-(2-(4-(dimethylamino)phenyl)-3H-imidazo[4,5-b]pyridin-6-yl)-2,6-difluoro-3-(propylsulfonamido)benzamide]
CCCS(=O)(=O)Nc1ccc(F)c(C(=O)Nc2cnc3[nH]c(-c4cccnc4)nc3c2)c1F [Example 7, 2,6-difluoro-3-(propylsulfonamido)-N-(2-(pyridin-3-yl)-3H-imidazo[4,5-b]pyridin-6-yl)benzamide]
CCCS(=O)(=O)Nc1ccc(F)c(C(=O)Nc2cnc3[nH]c(C(C)(C)C)nc3c2)c1F [Example 30, N-(2-tert-butyl-3H-imidazo[4,5-b]pyridin-6-yl)-2,6-difluoro-3-(propylsulfonamido)benzamide]
CCCS(=O)(=O)Nc1ccc(F)c(C(=O)Nc2cnc3[nH]c(Cc4cc(F)cc(F)c4)nc3c2)c1F [Example 26, N-(2-(3,5-difluorobenzyl)-3H-imidazo[4,5-b]pyridin-6-yl)-2,6-difluoro-3-(propylsulfonamido)benzamide]
CCCS(=O)(=O)Nc1ccc(F)c(C(=O)Nc2cnc3[nH]c(-c4ccccc4F)nc3c2)c1F [Example 21, 2,6-difluoro-N-(2-(2-fluorophenyl)-3H-imidazo[4,5-b]pyridin-6-yl)-3-(propylsulfonamido)benzamide]
CCCS(=O)(=O)Nc1ccc(F)c(C(=O)Nc2cnc3[nH]c(-c4ccc(OC)cc4)nc3c2)c1F [Example 11, 2,6-difluoro-N-(2-(4-methoxyphenyl)-3H-imidazo[4,5-b]pyridin-6-yl)-3-(propylsulfonamido)benzamide]
CCCS(=O)(=O)Nc1ccc(F)c(C(=O)Nc2cnc3[nH]c(-c4ccc(Cl)c(Cl)c4)nc3c2)c1F [Example 13, N-(2-(3,4-dichlorophenyl)-3H-imidazo[4,5-b]pyridin-6-yl)-2,6-difluoro-3-(propylsulfonamido)benzamide]
CCCS(=O)(=O)Nc1ccc(F)c(C(=O)Nc2cnc3[nH]c(Nc4ccccc4)nc3c2)c1F [Example 4]
CCCS(=O)(=O)Nc1ccc(F)c(C(=O)Nc2cnc3[nH]c(-c4ccccc4)nc3c2)c1F [Example 2, 2,6-difluoro-N-(2-phenyl-3H-imidazo[4,5-b]pyridin-6-yl)-3-(propylsulfonamido)benzamide]
CCCS(=O)(=O)Nc1ccc(F)c(C(=O)Nc2cnc3[nH]c(-c4cccc(C(F)(F)F)c4)nc3c2)c1F [Example 20, 2,6-difluoro-3-(propylsulfonamido)-N-(2-(3-(trifluoromethyl)phenyl)-3H-imidazo[4,5-b]pyridin-6-yl)benzamide]
CCCS(=O)(=O)Nc1ccc(F)c(C(=O)Nc2cnc3[nH]c(-c4ccccc4Br)nc3c2)c1F [Example 27]
CCCS(=O)(=O)Nc1ccc(F)c(C(=O)Nc2cnc3[nH]c(CC)nc3c2)c1F [Example 32, N-(2-ethyl-3H-imidazo[4,5-b]pyridin-6-yl)-2,6-difluro-3-(propylsulfonamido)benzamide]
CCCS(=O)(=O)Nc1ccc(F)c(C(=O)Nc2cnc3[nH]c(-c4ccc(N5CCOCC5)cc4)nc3c2)c1F [Example 36, 2,6-difluoro-N-(2-(4-morpholinophenyl)-3H-imidazo[4,5-b]pyridin-6-yl)-3-(propylsulfonamido)benzamide]
CCCS(=O)(=O)Nc1ccc(F)c(C(=O)Nc2cnc3[nH]c(-c4ccncc4)nc3c2)c1F [Example 6, 2,6-difluoro-3-(propylsulfonamido)-N-(2-(pyridin-4-yl)3H-imidazo[4,5-b]pyridin-6-yl)benzamide]
CCCS(=O)(=O)Nc1ccc(F)c(C(=O)Nc2cnc3[nH]c(-c4ccc(Cl)c(C(F)(F)F)c4)nc3c2)c1F [Example 37, N-(2-(4-chloro-3-(trifluoromethyl)phenyl)-3H-imidazo[4,5-b]pyridin-6-yl)-2,6-difluoro-3-(propylsulfonamido)benzamide]
CCCS(=O)(=O)Nc1ccc(F)c(C(=O)Nc2cnc3[nH]cnc3c2)c1F [Example 1, 2,6-difluoro-N-(3H-imidazo[4,5-b]pyridin-6-yl)-3-(propylsulfonamido)benzamide]
CCCS(=O)(=O)Nc1ccc(F)c(C(=O)Nc2cnc3[nH]c(-c4ccc(C#N)cc4)nc3c2)c1F [Example 23, N-(2-(4-cyanophenyl)-3H-imidazo[4,5-b]pyridin-6-yl)-2,6-difluoro-3-(propylsulfonamido)benzamide]
CCCS(=O)(=O)Nc1ccc(F)c(C(=O)Nc2cnc3[nH]c(C4CCNCC4)nc3c2)c1F [Example 8, 2,6-difluoro-N-(2-(piperidin-4-yl)-3H-imidazo[4,5-b]pyridin-6-yl)-3-(propylsulfonamido)benzamide]
CCCS(=O)(=O)Nc1ccc(F)c(C(=O)Nc2cnc3[nH]c(-c4ccc(Br)cc4C)nc3c2)c1F [Example 38, N-(2-(4-bromo-2-methylphenyl)-3H-imidazo[4,5-b]pyridin-6-yl)-2,6-difluoro-3-(propylsulfonamido)benzamide]
CCCS(=O)(=O)Nc1ccc(F)c(C(=O)Nc2cnc3[nH]c(C)nc3c2)c1F [Example 5, 2,6-difluoro-N-(2-methyl-3H-imidazo[4,5-b]pyridin-6-yl)-3-(propylsulfonamido)benzamide]
CCCS(=O)(=O)Nc1ccc(F)c(C(=O)Nc2cnc3[nH]c(-c4ccc(C(F)(F)F)cc4)nc3c2)c1F [Example 18]
CCCS(=O)(=O)Nc1ccc(F)c(C(=O)Nc2cnc3[nH]c(-c4ccc(N5CCOCC5)nc4)nc3c2)c1F [Example 35]
CCCS(=O)(=O)Nc1ccc(F)c(C(=O)Nc2cnc3[nH]c(Cc4ccc(F)c(F)c4)nc3c2)c1F [Example 33]
CCCS(=O)(=O)Nc1ccc(F)c(C(=O)Nc2cnc3[nH]c(-c4cccc(Cl)c4)nc3c2)c1F [Example 16, N-(2-(3-chlorophenyl)-3H-imidazo[4,5-b]pyridin-6-yl)-2,6-difluoro-3-(propylsulfonamido)benzamide]

Reference: patent publication US20110003809A1, “IMIDAZO [4,5-B] PYRIDINE DERIVATIVES USED AS RAF INHIBITORS” (Array Biopharma Inc., priority 2008, published 2011)
